From article PMC8516933 come the findings set out here.

The chains behind the UniProt entries cited, without tags or fusion partners.
UniProt O35613: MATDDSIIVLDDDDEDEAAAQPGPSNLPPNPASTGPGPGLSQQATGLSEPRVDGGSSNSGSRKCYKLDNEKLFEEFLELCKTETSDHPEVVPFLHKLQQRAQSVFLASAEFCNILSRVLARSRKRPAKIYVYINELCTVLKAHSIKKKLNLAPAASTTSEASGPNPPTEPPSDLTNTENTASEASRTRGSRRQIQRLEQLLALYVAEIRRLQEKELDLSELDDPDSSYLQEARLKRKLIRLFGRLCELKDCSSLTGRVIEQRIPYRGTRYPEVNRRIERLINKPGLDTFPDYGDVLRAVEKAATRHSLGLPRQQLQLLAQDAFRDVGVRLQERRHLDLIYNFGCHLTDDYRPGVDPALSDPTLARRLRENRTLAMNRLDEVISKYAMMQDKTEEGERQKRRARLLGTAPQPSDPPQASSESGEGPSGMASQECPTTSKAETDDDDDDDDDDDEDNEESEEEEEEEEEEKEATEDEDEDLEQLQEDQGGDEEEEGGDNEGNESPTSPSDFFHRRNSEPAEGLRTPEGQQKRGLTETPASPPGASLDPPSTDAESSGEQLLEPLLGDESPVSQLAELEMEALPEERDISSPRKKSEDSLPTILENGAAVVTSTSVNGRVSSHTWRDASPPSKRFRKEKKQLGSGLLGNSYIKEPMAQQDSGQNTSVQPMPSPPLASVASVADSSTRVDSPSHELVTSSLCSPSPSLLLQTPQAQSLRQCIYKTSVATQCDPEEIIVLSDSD

These are yes or no findings as the source states them, for the method shown. In cells and extracts the contact can be indirect. Some entries that bind do so weakly or less than the wild type. Where a sequence is shown, tags or fusion partners need not be part of it.

What all share (test): co-IP; nuclear extract of rescue ES cell lines, benzonase-digested, 300 mM NaCl, 25 mM NEM; 3xFLAG bait precipitated with anti-FLAG M2 magnetic beads, 4 h; washes with 300 mM NaCl IP buffer; western blot
For orientation: In western blotting, separated proteins are transferred to a membrane and probed.

The target in experiment [1] is T1, Morc3 ATP binding mutant (G101A), 3xFLAG tagged (UniProt F7BJB9).
T1 sequence: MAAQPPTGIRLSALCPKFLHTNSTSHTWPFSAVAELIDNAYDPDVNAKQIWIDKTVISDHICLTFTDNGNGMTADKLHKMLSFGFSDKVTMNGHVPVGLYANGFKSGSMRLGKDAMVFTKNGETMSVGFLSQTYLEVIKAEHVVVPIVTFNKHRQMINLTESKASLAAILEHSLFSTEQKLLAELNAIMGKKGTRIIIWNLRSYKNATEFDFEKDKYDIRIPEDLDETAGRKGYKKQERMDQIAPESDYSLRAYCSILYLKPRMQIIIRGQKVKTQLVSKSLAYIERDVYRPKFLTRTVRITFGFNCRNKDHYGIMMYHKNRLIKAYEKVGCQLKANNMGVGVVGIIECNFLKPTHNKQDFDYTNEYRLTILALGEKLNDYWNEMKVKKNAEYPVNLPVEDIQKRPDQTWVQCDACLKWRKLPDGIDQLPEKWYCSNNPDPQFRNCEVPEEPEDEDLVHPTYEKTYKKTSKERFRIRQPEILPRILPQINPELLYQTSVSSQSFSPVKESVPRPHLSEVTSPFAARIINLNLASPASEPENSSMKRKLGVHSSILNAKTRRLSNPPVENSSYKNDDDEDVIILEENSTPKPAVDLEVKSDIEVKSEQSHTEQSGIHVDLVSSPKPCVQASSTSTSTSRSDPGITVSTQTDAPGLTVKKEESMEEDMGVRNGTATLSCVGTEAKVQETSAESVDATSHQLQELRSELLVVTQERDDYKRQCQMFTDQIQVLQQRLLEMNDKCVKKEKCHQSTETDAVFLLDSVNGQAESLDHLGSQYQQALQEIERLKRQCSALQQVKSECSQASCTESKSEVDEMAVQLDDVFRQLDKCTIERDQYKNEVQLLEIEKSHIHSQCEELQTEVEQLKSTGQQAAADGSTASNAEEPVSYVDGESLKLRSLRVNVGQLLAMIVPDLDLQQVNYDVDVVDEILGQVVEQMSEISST

Experiment [2] addresses T2, Morc3 wild type, 3xFLAG tagged (rescue construct) (UniProt F7BJB9).
T2 sequence: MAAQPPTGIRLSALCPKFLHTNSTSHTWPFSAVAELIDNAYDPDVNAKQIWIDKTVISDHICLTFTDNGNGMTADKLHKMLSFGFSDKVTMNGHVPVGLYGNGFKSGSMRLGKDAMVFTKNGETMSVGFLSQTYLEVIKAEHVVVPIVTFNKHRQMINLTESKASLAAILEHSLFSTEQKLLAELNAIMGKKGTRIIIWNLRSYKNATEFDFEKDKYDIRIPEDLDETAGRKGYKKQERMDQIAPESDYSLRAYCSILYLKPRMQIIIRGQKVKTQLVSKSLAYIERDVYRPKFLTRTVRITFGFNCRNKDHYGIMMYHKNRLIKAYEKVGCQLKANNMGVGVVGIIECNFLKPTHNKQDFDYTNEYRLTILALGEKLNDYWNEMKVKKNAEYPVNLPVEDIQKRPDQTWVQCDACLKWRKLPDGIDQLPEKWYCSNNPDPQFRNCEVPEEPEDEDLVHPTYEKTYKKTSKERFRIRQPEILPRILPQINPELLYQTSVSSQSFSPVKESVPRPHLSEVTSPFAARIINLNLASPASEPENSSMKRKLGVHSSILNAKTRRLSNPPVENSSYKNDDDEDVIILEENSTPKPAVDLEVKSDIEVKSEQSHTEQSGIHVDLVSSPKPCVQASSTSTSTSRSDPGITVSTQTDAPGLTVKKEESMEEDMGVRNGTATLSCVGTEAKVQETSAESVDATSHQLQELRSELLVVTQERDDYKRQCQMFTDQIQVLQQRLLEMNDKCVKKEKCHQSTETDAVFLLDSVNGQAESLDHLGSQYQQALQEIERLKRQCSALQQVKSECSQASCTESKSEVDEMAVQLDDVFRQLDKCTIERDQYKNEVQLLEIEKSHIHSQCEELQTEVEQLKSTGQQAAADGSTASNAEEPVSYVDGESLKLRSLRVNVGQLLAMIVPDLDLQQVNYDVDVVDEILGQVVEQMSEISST

In experiment [3] the target is Daxx wild type, 3xFLAG tagged (rescue construct) (UniProt O35613).

For the molecule “Daxx (endogenous) (from UniProt O35613 1-739)”, the binding entry in experiment [1] is “no binding”; in experiment [2], “binds”.

B1: Morc3 (endogenous, untagged) (protein, UniProt F7BJB9 1-942)
chain: MAAQPPTGIRLSALCPKFLHTNSTSHTWPFSAVAELIDNAYDPDVNAKQIWIDKTVISDHICLTFTDNGNGMTADKLHKMLSFGFSDKVTMNGHVPVGLYGNGFKSGSMRLGKDAMVFTKNGETMSVGFLSQTYLEVIKAEHVVVPIVTFNKHRQMINLTESKASLAAILEHSLFSTEQKLLAELNAIMGKKGTRIIIWNLRSYKNATEFDFEKDKYDIRIPEDLDETAGRKGYKKQERMDQIAPESDYSLRAYCSILYLKPRMQIIIRGQKVKTQLVSKSLAYIERDVYRPKFLTRTVRITFGFNCRNKDHYGIMMYHKNRLIKAYEKVGCQLKANNMGVGVVGIIECNFLKPTHNKQDFDYTNEYRLTILALGEKLNDYWNEMKVKKNAEYPVNLPVEDIQKRPDQTWVQCDACLKWRKLPDGIDQLPEKWYCSNNPDPQFRNCEVPEEPEDEDLVHPTYEKTYKKTSKERFRIRQPEILPRILPQINPELLYQTSVSSQSFSPVKESVPRPHLSEVTSPFAARIINLNLASPASEPENSSMKRKLGVHSSILNAKTRRLSNPPVENSSYKNDDDEDVIILEENSTPKPAVDLEVKSDIEVKSEQSHTEQSGIHVDLVSSPKPCVQASSTSTSTSRSDPGITVSTQTDAPGLTVKKEESMEEDMGVRNGTATLSCVGTEAKVQETSAESVDATSHQLQELRSELLVVTQERDDYKRQCQMFTDQIQVLQQRLLEMNDKCVKKEKCHQSTETDAVFLLDSVNGQAESLDHLGSQYQQALQEIERLKRQCSALQQVKSECSQASCTESKSEVDEMAVQLDDVFRQLDKCTIERDQYKNEVQLLEIEKSHIHSQCEELQTEVEQLKSTGQQAAADGSTASNAEEPVSYVDGESLKLRSLRVNVGQLLAMIVPDLDLQQVNYDVDVVDEILGQVVEQMSEISST
With B1, the binding result in experiment [3] is given as “binds”.
